From paper PMC4872778
Results are given in words; binding and its absence hold for the method and conditions named. Binding seen in cells or lysates may run through a third protein. Each block holds one binder with its values, some of them ahead of it.

Protein sequences, listed by entry. Tags and fused reporters are not part of them. Lines headed by an entry give the natural chain unless they say otherwise; changes in a name come on top.
UniProt P53355: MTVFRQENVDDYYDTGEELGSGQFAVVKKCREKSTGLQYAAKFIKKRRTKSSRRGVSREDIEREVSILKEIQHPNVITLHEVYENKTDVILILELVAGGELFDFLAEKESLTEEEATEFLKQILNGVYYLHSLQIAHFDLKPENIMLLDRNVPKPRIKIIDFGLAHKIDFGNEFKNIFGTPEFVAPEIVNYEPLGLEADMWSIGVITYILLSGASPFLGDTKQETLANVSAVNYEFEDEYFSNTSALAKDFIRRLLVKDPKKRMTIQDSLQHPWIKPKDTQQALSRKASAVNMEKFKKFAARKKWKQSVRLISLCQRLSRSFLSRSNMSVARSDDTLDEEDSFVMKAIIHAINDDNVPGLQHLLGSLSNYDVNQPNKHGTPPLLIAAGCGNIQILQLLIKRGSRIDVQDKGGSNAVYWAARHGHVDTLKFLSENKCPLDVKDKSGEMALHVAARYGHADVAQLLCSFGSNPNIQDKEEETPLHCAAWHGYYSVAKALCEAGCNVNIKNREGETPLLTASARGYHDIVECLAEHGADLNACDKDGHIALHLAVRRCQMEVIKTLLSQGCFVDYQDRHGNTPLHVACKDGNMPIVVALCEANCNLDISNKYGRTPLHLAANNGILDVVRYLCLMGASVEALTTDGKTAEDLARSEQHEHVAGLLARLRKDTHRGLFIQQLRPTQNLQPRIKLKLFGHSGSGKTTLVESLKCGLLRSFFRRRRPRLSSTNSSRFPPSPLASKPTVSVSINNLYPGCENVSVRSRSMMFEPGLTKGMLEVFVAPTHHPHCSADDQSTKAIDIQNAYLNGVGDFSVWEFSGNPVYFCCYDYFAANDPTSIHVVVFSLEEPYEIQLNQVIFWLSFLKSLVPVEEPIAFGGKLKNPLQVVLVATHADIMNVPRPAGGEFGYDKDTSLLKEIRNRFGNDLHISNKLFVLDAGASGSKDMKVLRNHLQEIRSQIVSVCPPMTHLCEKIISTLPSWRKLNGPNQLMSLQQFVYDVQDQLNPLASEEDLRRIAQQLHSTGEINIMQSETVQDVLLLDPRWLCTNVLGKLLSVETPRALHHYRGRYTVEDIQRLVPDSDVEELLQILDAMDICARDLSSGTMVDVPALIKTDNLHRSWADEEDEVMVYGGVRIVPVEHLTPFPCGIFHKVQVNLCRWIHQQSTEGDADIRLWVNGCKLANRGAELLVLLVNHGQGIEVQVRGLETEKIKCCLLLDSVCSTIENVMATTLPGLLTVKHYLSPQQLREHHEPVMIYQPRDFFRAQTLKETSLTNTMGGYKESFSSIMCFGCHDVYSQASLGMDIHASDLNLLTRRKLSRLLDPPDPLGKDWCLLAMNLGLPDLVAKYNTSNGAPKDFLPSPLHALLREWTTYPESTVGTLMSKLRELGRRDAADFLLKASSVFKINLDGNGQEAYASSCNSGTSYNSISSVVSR

Assays:
[1] = target: DAPK-ΔDD-VN (from pBiFC-DAPK (ΔDD)-VN) (UniProt P53355); assay: split reporter; BiFC with Venus fragments (VN on DAPK forms, VC on DANGER) in transiently transfected live NCI-H460 or A427 cells; fluorescence microscopy
[2] = target: DAPK-ΔDD as used in the IP assay of Figure 4D (UniProt P53355); assay: co-IP; IP assay ('binding assay') of DAPK forms (WT, DD-only, ΔDD) with DANGER (Figure 4D); antibodies and constructs not told

binding [1]: no binding
B1: DANGER-VC (from pBiFC-DANGER-VC) (protein, UniProt Q8IWB1 16-547)
chain: IINHPLLFPRENATVPENEEEIIRKMQAHQEKLQLEQLRLEEEVARLAAEKEALEQVAEEGRQQNETRVAWDLWSTLCMILFLMIEVWRQDHQEGPSPECLGGEEDELPGLGGAPLQGLTLPNKATLGHFYERCIRGATADAARTREFLEGFVDDLLEALRSLCNRDTDMEVEDFIGVDSMYENWQVDRPLLCHLFVPFTPPEPYRFHPELWCSGRSVPLDRQGYGQIKVVRADGDTLSCICGKTKLGEDMLCLLHGRNSMAPPCGDMENLLCATDSLYLDTMQVMKWFQTALTRAWKGIAHKYEFDLAFGQLDSPGSLKIKFRSGKFMPFNLIPVIQCDDSDLYFVSHLPREPSEGTPASSTDWLLSFAVYERHFLRTTLKALPEGACHLSCLQIASFLLSKQSRLTGPSGLSSYHLKTALLHLLLLRQAADWKAGQLDARLHELLCFLEKSLLQKKLHHFFIGNRKVPEAMGLPEAVLRAEPLNLFRPFVLQRSLYRKTLDSFYEMLKNAPALISEYSLHVPSDQPTPKS

binding [2]: no binding
B2: DANGER as used in the IP assays of Figures 3A, 3B and 4D (protein, UniProt Q8IWB1 16-547)
chain: B1 chain
